{"sequences": {"note": "Sequences of proteins named here, by UniProt entry; tags and fusion partners are left off.", "UniProt Q15759": "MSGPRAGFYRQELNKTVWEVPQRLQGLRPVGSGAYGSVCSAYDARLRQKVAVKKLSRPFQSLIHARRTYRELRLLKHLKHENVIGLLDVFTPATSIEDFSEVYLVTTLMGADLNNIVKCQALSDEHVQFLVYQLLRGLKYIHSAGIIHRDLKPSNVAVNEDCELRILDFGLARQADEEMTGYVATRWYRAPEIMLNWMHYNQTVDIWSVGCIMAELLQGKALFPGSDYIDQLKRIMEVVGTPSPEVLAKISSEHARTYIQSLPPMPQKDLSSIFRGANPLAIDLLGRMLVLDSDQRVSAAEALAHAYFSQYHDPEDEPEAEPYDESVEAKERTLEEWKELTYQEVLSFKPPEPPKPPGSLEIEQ", "UniProt Q16539": "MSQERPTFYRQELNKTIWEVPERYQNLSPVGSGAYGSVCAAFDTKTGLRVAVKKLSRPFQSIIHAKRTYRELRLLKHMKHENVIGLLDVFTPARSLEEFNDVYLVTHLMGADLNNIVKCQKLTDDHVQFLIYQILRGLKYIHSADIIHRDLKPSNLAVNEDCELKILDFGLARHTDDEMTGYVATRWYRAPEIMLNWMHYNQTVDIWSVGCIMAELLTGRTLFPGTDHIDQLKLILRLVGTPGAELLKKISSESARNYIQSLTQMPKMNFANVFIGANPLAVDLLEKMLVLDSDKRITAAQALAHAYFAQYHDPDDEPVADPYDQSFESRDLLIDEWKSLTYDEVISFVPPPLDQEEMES", "UniProt Q01105": "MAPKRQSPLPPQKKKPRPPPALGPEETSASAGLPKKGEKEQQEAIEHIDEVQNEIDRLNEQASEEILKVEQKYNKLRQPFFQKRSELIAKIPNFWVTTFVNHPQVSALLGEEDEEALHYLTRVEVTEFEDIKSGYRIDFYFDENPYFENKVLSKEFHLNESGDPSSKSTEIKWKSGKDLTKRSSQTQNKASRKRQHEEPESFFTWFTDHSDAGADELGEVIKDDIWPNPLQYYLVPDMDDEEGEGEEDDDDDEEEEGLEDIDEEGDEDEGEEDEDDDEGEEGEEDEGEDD"}, "source": "paper PMC6949222", "key": {"[1]": {"molecular_target": "protein kinase p38β (human (endogenous in HL60 and MOLM-13)) (UniProt Q15759)", "assay": "co-IP; immunoprecipitation of endogenous SET, p38α and p38β with specific antibodies in HL60 and MOLM-13 cells, normal goat Ig as negative control; also HL60 cells treated with p38 inhibitors (Supplementary Fig. S4b)"}, "[2]": {"molecular_target": "p38α (human (endogenous in HL60)) (UniProt Q16539)", "assay": "co-IP; immunoprecipitation of endogenous SET, p38α and p38β with specific antibodies in HL60 and MOLM-13 cells, normal goat Ig as negative control; also HL60 cells treated with p38 inhibitors (Supplementary Fig. S4b)"}}, "note": "No constants are given. Whether binding was seen depends on the method and setting. Binding seen in cells or lysates may run through a third protein. Some binding calls cover weakened binding; strength is not graded here."}
{"substance": "SET oncoprotein (from UniProt Q01105 1-290)", "values": [{"measurement": "binding", "setting": "[1]", "value": "binds"}, {"measurement": "binding", "setting": "[2]", "value": "binds"}]}
